These are yes or no findings as the source states them, for the method shown. In cells and extracts the contact can be indirect. Some results given as binding are weak or reduced against the parent protein; the word gives no strength. Where a sequence is shown, tags or fusion partners need not be part of it.

Protein sequences, listed by entry. Tags and fused reporters are not part of them.
UniProt P35222: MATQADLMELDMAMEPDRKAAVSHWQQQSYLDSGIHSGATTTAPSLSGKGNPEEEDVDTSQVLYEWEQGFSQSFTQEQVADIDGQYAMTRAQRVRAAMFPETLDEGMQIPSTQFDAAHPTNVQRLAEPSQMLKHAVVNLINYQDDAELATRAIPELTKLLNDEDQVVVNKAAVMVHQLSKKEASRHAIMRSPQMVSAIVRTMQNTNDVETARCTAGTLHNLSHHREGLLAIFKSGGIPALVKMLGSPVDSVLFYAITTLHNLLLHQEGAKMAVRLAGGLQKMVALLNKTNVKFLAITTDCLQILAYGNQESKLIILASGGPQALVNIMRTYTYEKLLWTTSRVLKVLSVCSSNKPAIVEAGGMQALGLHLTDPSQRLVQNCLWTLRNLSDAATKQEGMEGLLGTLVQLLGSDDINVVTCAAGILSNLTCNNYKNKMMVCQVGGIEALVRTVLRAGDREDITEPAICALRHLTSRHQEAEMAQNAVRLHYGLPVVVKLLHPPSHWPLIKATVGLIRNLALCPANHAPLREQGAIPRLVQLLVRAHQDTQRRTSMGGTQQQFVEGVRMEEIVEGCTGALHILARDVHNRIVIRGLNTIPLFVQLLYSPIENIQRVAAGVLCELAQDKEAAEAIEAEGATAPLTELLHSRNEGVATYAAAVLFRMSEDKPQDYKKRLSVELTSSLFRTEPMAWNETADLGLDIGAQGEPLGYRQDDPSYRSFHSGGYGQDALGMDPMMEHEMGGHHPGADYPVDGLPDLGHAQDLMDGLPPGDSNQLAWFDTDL

The experiment concerns the target NL-β-catenin (β-catenin with an N-terminal NanoLuc) (UniProt P35222). As to the kind of experiment: FRET or BRET.

B1: PTK7-HT (PTK7 with a C-terminal HaloTag) (receptor, UniProt Q13308 31-1070)
chain: AIVFIKQPSSQDALQGRRALLRCEVEAPGPVHVYWLLDGAPVQDTERRFAQGSSLSFAAVDRLQDSGTFQCVARDDVTGEEARSANASFNIKWIEAGPVVLKHPASEAEIQPQTQVTLRCHIDGHPRPTYQWFRDGTPLSDGQSNHTVSSKERNLTLRPAGPEHSGLYSCCAHSAFGQACSSQNFTLSIADESFARVVLAPQDVVVARYEEAMFHCQFSAQPPPSLQWLFEDETPITNRSRPPHLRRATVFANGSLLLTQVRPRNAGIYRCIGQGQRGPPIILEATLHLAEIEDMPLFEPRVFTAGSEERVTCLPPKGLPEPSVWWEHAGVRLPTHGRVYQKGHELVLANIAESDAGVYTCHAANLAGQRRQDVNITVATVPSWLKKPQDSQLEEGKPGYLDCLTQATPKPTVVWYRNQMLISEDSRFEVFKNGTLRINSVEVYDGTWYRCMSSTPAGSIEAQARVQVLEKLKFTPPPQPQQCMEFDKEATVPCSATGREKPTIKWERADGSSLPEWVTDNAGTLHFARVTRDDAGNYTCIASNGPQGQIRAHVQLTVAVFITFKVEPERTTVYQGHTALLQCEAQGDPKPLIQWKGKDRILDPTKLGPRMHIFQNGSLVIHDVAPEDSGRYTCIAGNSCNIKHTEAPLYVVDKPVPEESEGPGSPPPYKMIQTIGLSVGAAVAYIIAVLGLMFYCKKRCKAKRLQKQPEGEEPEMECLNGGPLQNGQPSAEIQEEVALTSLGSGPAATNKRHSTSDKMHFPRSSLQPITTLGKSEFGEVFLAKAQGLEEGVAETLVLVKSLQSKDEQQQLDFRRELEMFGKLNHANVVRLLGLCREAEPHYMVLEYVDLGDLKQFLRISKSKDEKLKSQPLSTKQKVALCTQVALGMEHLSNNRFVHKDLAARNCLVSAQRQVKVSALGLSKDVYNSEYYHFRQAWVPLRWMSPEAILEGDFSTKSDVWAFGVLMWEVFTHGEMPHGGQADDEVLADLQAGKARLPQPEGCPSKLYRLMQRCWALSPKDRPSFSEIASALGDSTVDSKP
modifications: HaloTag 618 ligand on the HaloTag
As to B1, the binding result is on record as “binds”.

The record behind these values is paper doi:10.1101/2021.10.15.464507.
